Library screen at single concentrations

Mtb glucose medium: 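Whole-cell growth test on Mycobacterium tuberculosis, read after 3 days in glucose-containing 7H9 medium; the read-out is not stated. Tested at 50 µM. Higher reads as more growth inhibition (inferred: compounds with an IC50 in retests scored well above the rest). About 69,000 compounds were tested under these conditions; 1.1% (about 760) showed 50% or more at least once.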
Mtb cholesterol medium: 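Growth of Mycobacterium tuberculosis over 4 days (cholesterol / DPPC medium with tyloxapol); the read-out is not stated. Concentration: 50 µM. The record gives no direction; compounds that gave an IC50 in retests scored well above the rest, so higher reads as more growth inhibition. Of about 69,000 compounds tested this way, about 370 (0.54%) reached 50% or more in at least one test.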

Results are given as percent effect. The controls that fix the scale are not given in the record; negative values are as filed. Compounds were drawn at random from those tested, without regard to their results. Two or more numbers in one place are separate tests of the same structure; such repeats can differ widely.

SMILES | Mtb glucose medium | Mtb cholesterol medium
O=C(CN1CCOC(Cn2cccn2)C1)Nc1ccncc1 (centres undefined) | 24.44 | 0.7535
Fc1cccc(C2CCCN2Cc2nnnn2C2CC2)c1 (centres undefined) | 10.47 | 5.407
CC(C)NC(=O)C1CN(C(N)=O)Cc2ccnn2C1 (centres undefined) | -5.264 | -16.87
O=C(COC1CCCC1)NS(=O)(=O)c1ccc2c(c1)OCCCO2 | 12.24 | -4.626
Cn1cc(C2CCCN2C(=O)c2cnc(C3CC3)s2)cn1 (centres undefined) | -37.58 | -9.336 & -13.47
CN(CCc1ccccn1)C(=O)C(O)c1ccc(Br)cc1 (centres undefined) | -4.685 | 16.41
Cc1nccn1CC1CCCN(Cc2ccc(-c3cccnc3)cc2)C1 (centres undefined) | 28.03 | 7.139
COCCC1(CNC(=O)NC2CCCN(C)C2)CC1 (centres undefined) | -3.341 & 1.602 | -10.52
COC(=O)CCCNC(=O)N1CCc2c(F)ccc(F)c2C1 | 0.7517 | 14.28
Cc1ccc(C(=O)Nc2c(C(=O)N(C)C)nn(C)c2C)cc1 | 2.113 | 9.213
CCOC(=O)c1nc(CC(=O)Nc2ccccc2)no1 | -6.522 & -1.302 | 7.913
CN(C)Cc1ccc(CNC(=O)NCC2(C)CCCS2)cc1 (centres undefined) | 6.517 | 17.7
COc1ccc(N(C)C(=O)C2CN(C)CCO2)cc1F (centres undefined) | -37.34 | -19.95
Fc1cccc(N2CCc3ncnc(N4CCOCC4)c3CC2)c1 | 5.55 & 28.84 | 18.79
COc1ccc(C2CCCCCN2Cc2nnc(C)o2)cc1 (centres undefined) | 8.4 & 19.6 | 3.265
CN(Cc1ccc(F)cc1)C(=O)NCc1nnc2n1CCCCC2 | -0.2456 | 2.006
Cn1cc(N2CC3(CCN(S(=O)(=O)C4CC4)C3)CC2=O)cn1 (centres undefined) | 12.11 | 4.556
CC(=O)N(Cc1ncc(C)o1)C1CCN(Cc2ccc(F)c(F)c2)C1 (centres undefined) | 9.772 | 5.941
O=C(O)C(F)(F)F.[H][C@@]12CCCO[C@]1([H])[C@H](N1CCCC1)CN(C(=O)c1ccccc1)C2 | -0.8945 & -9.227 | 3.243
CC(C)(C)c1cc(=O)[nH]c(C2(N)CCCC2)n1 | -16.61 & -5.908 | 0.2091
CC(=O)N1CCCN(C(=O)Cc2ccc3c(c2)OCO3)CC1 | -30.29 | -18.22
O=C(O)C(F)(F)F.[H][C@]12CN(c3nncs3)C[C@@]1(C(=O)O)CCCN(C1CCOC1)C2 (some centres undefined) | -3.142 | -13.71
Cc1nsc(N2CCCN(C(=O)CCc3ccsc3)CC2)n1 | 4.775 | 18.23
CCn1c(C2CCN(Cc3cc(C)n(NC(C)=O)c3C)CC2)n[nH]c1=O | -2.612 | -3.511 & 1.359
COCCOc1cccc(C(=O)N2CCCC(n3ccnc3C)C2)c1 (centres undefined) | 12.47 | 5.708
CSCC(=O)N1CCCC(CO)(CC2CC2)C1 (centres undefined) | -4.325 & -22.84 | 5.391
CCc1nccn1CCC(=O)N1CCOC(c2ccc(F)cc2)C1 (centres undefined) | -32.71 | -16.87 & -4.554
CS(=O)(=O)c1ccc(-c2nc(C(=O)N3CCCC3)n3ccccc23)cc1 | -0.9909 | -12.49
CC1c2ncc(CN3CCN(C)CC3)n2CCN1CC1CC1.O=C(O)C(F)(F)F.O=C(O)C(F)(F)F.O=C(O)C(F)(F)F (centres undefined) | 12.22 | 5.703
CN(C)C(C(=O)NCC(F)(F)F)c1cccc(F)c1 (centres undefined) | -5.983 | 2.356 & -5.672
CN1CCN(Cc2cnc3n2CCN(CCc2ccccc2)C3)CC1.O=C(O)C(F)(F)F.O=C(O)C(F)(F)F.O=C(O)C(F)(F)F | -37.18 | -50.21
CS(=O)(=O)Cc1ccc(C(=O)N2CCCC(n3cncn3)C2)o1 (centres undefined) | 16.25 | -17.11
Fc1cnc(N2CCCC3(CCN(Cc4cccs4)C3)C2)nc1.O=C(O)C(F)(F)F.O=C(O)C(F)(F)F (centres undefined) | -14.8 | -5.081
CN(C)Cc1cnc(CC2CCN(CCc3ccccc3)CC2)cn1 | -5.84 | -6.507
CC(NCc1cccn1C)c1noc(-c2ccc(Cl)cc2)n1 (centres undefined) | 18.61 & 3.994 | 12.1
CC1CCN(Cc2cc(=O)[nH]c(=O)[nH]2)CC1 | -2.42 & -7.076 | -25.34
O=C(O)C(F)(F)F.[H][C@@]12OCCN(S(=O)(=O)CC)[C@@]1([H])CC[C@H]2OCCCn1cccn1 | 4.887 | -4.941
[H][C@@]12C[C@H](C(=O)NCc3ccccc3)[C@@]([H])(CN(C(=O)NCC(C)C)C1)O2 | -9.013 | 4.6
O=C(CNc1cc(-n2cnnn2)ccc1F)Nc1cc(F)ccc1F | -22.3 | -19.99
O=C(NCc1cscn1)NC1CCN(c2ncccc2Cl)C1 (centres undefined) | 14.44 | -9.46
O=C(CN1CCOCC1)Nc1cc(C(F)(F)F)ccc1-n1cccc1 | -18.69 & 6.988 | -6.322
CC(CC(=O)NCCS(N)(=O)=O)C1CCCCC1 (centres undefined) | 20.03 | 25.74
CNc1cncc(C2CCCN2C(=O)c2ccc3oc(=O)n(C)c3c2)n1 (centres undefined) | -10.79 | -0.9694
CCN(CCC(F)(F)F)S(=O)(=O)c1cccc(F)c1C#N | 3.139 & -8.084 | -0.9259
O=C(O)C(F)(F)F.O=C(O)C(F)(F)F.c1cnn(Cc2cnc3n2CCN(CC2CCCCC2)C3)c1 | 16.49 | -8.01
CC(C)c1cc(C(=O)N2CCOCC2CC(=O)c2ccco2)nn1C (centres undefined) | 25.61 | 16.63
[H][C@@]12C[C@H](NC(=O)c3cc4nc(C)cc(C)n4n3)CN1CCN(C)C2 | -35.61 | -36.92
O=C(C[S+]([O-])Cc1cccc(F)c1)NC1CCCC1 (centres undefined) | 14.38 | 5.653
CN1CCCN(C(=O)c2csc(-c3ccc(C(F)(F)F)cc3)n2)CC1 | 28.85 | -13.13
FC(F)(F)c1cc(NCCn2ncnn2)nc(-c2cccnc2)n1 | 21.96 | -1.951
CCCc1ncc(CNC2(c3ccc(Cl)cc3)CCC2)cn1 | -3.965 | -18.92
CC(NC(=O)NCCCN(C(C)C)S(C)(=O)=O)c1ccncc1 (centres undefined) | -3.948 | -8.292
COc1ccc(-c2nc(CN3CCCC(OC)C3)c(C)o2)c(F)c1 (centres undefined) | 11.79 | 21.69
Cc1cc(C)n(Cc2cccc(C(=O)NCCN3CCOCC3)c2)n1 | -20.54 | -20.82
[H][C@@]12CCN(C(=O)NCc3cccc(F)c3)C[C@]1([H])[C@@H](CN(C)C)OC2 | -18.98 & 3.679 | 1.81
O=C(O)c1ccc(S(=O)(=O)Nc2cccc(CC(F)(F)F)c2)c(F)c1 | -23.97 | -1.99
CCn1ncc2c1C(COC)N(C(=O)c1ccsc1)CC2.O=C(O)C(F)(F)F (centres undefined) | 24.93 | 8.139
Cc1cccnc1CN1CCN(c2noc(-c3ccccc3)n2)CC1 | -8.749 & 16.18 | -4.453
Nc1ccc(C(=O)N2CCC(Oc3cccc(C(F)(F)F)c3)CC2)cn1 | 4.607 & 0.8679 | 8.186
CC(C)(C)CNC(=O)c1ccc(C(=O)O)cc1 | -17.92 & -2.882 | -10.6
Cc1cc(C)c2cc(CNCc3ccccc3)c3nn(C)c(=O)n3c2c1 | 13.48 | -13.41
[H][C@]12C[C@@H](CN3CCCC3)N(C)[C@@]1([H])CCN(C(=O)c1ccsc1)C2 | -3.864 | -15.26 & 0.1795
CC(O)Cc1cn(CC2CCN(c3nccc4occc34)CC2)nn1 (centres undefined) | -14.65 | -12.33
FC(F)(F)C1CCCn2c(CNCc3cccs3)nnc21 (centres undefined) | -16.23 | -23.88
CCn1cnnc1C1CCN(C(=O)c2cc(OC)ccc2OC)CC1 | -5.162 | -8.978
CCC(CN1CCCC1)NC(=O)Cc1c(C)[nH]c2cc(C)cc(C)c12 (centres undefined) | 13.33 | 7.587
Cc1csc(N2CCCN(C(=O)C3(C#N)CCCC3)CC2)n1 | -9.466 | -6.413
Cc1ccc(S(=O)(=O)NCCc2ccoc2)s1 | 16.93 | 71.89
Cc1nn(C)c(N2CCCN(C)CC2)c1CNC(=O)CC1CCCC1 | -32.81 | 0.5268
O=C1CCC(=O)c2oc3ccc(Cl)cc3c2N1 | -18.04 | -12.56
Cc1cnn(CC(=O)N2CCCN(c3nc(C)cs3)CC2)c1 | -36 | -12.14
O=C(NCC1CCCCC1)NC1CCCc2c1cnn2CCO (centres undefined) | 26.45 | 13.82 & -2.792
Cc1cc(C)n(CC2CCCN2C(=O)Cc2c(C)noc2C)n1 (centres undefined) | 8.689 | -3.04
CCn1ccnc1CN1CCCN(C(=O)Cc2ccc(C)nc2)CC1 | 20.92 | 11.77
COc1cc(N2CCCC(c3nccn3Cc3ccncc3)C2)ncn1 (centres undefined) | 19.81 | 2.139
Cc1ccccc1CC(=O)N(C)CC1(O)CCCN(c2ccccn2)C1 (centres undefined) | 21.46 | 12.27
O=C(CCn1ccnc1)N1CC[C@@H](c2ccc3ccccc3c2)[C@H](O)C1 | 13.22 & 13.92 | -24.43
COc1ccc(Br)cc1SCCC(N)=O | -0.2004 | -1.082 & -2.129
O=C(c1ccsc1)N1CC[C@@H](N2CCOCC2)[C@@H]1Cc1ccccc1 | -4.573 | 3.989
CN1CCN(C(=O)c2cn(Cc3ccccc3)c3ncccc23)CC1 | -16.33 | -13.78
CC(C)(C)c1ccc(C(=O)NCCCNC(=O)c2cnccn2)cc1 | 20.5 | -12.69 & 6.036
CCn1c(N)nc2cc(C(=O)N3CCCN(C)CC3)cnc21 | -1.351 | -12.71
CN(C)c1ncnc2c1CCN(CC1CCOCC1)CC2.O=C(O)C(F)(F)F | -15.76 | 9.164 & -14.08
NC(CC1CCCC1)c1ccc(Oc2ccccc2)cc1 (centres undefined) | 111.5 | 105.7

For reference, 11 entries once more:

SMILES,Mtb glucose medium,Mtb cholesterol medium
O=C(O)C(F)(F)F.[H][C@@]12OCCN(S(=O)(=O)CC)[C@@]1([H])CC[C@H]2OCCCn1cccn1,4.887,-4.941
CCCc1ncc(CNC2(c3ccc(Cl)cc3)CCC2)cn1,-3.965,-18.92
CN(C)c1ncnc2c1CCN(CC1CCOCC1)CC2.O=C(O)C(F)(F)F,-15.76,9.164 & -14.08
CN(Cc1ccc(F)cc1)C(=O)NCc1nnc2n1CCCCC2,-0.2456,2.006
CN1CCN(Cc2cnc3n2CCN(CCc2ccccc2)C3)CC1.O=C(O)C(F)(F)F.O=C(O)C(F)(F)F.O=C(O)C(F)(F)F,-37.18,-50.21
COc1ccc(C2CCCCCN2Cc2nnc(C)o2)cc1 (centres undefined),8.4 & 19.6,3.265
Cc1ccc(S(=O)(=O)NCCc2ccoc2)s1,16.93,71.89
CN(CCc1ccccn1)C(=O)C(O)c1ccc(Br)cc1 (centres undefined),-4.685,16.41
[H][C@@]12C[C@H](NC(=O)c3cc4nc(C)cc(C)n4n3)CN1CCN(C)C2,-35.61,-36.92
O=C(O)C(F)(F)F.[H][C@]12CN(c3nncs3)C[C@@]1(C(=O)O)CCCN(C1CCOC1)C2 (some centres undefined),-3.142,-13.71
CN1CCN(C(=O)c2cn(Cc3ccccc3)c3ncccc23)CC1,-16.33,-13.78

Source: ChEMBL document CHEMBL3988442, “University of Dundee, Small-Polar-MMV Screening Library” (2021).